Measurements: PubChem BioAssay AID1671190 (National Center for Advancing Translational Sciences (NCATS), 2021)
Out of some 580,000 compounds screened, about 6,100 (1.1%) were called active. The shares of active, inactive and inconclusive entries below differ from those in the screen. Calls follow the shape of the dose curve; as a rule, active = well fitted inhibition curve with a large enough effect; inconclusive = small, poorly fitted or top-dose-only effect, or another doubt; inactive = no such curve, though single readings can be large or run the other way. Potencies of inconclusive entries are doubtful fits and often do not repeat.

Chains of the proteins cited; added tags and fusions are not shown. Lines headed by an entry give the natural chain unless they say otherwise; changes in a name come on top.
UniProt P18054: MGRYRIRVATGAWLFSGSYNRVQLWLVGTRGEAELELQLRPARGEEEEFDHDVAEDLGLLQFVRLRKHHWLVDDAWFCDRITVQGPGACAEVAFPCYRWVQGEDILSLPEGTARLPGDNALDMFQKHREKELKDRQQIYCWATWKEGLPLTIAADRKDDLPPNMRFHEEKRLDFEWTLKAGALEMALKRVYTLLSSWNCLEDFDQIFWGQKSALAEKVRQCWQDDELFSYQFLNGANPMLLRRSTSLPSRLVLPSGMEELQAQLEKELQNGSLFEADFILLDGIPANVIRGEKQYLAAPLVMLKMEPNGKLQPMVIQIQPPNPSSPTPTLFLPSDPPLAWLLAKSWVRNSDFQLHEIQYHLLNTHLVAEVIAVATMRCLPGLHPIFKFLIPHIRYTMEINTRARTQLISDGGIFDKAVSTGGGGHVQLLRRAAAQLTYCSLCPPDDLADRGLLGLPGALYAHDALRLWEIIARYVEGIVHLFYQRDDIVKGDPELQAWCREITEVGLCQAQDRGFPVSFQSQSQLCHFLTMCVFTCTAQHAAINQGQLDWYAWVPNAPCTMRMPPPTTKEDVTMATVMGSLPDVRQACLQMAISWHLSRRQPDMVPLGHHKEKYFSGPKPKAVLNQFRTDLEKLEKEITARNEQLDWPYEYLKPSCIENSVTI

biological target: Polyunsaturated fatty acid lipoxygenase ALOX12 (Homo sapiens) (UniProt P18054); assay: Primary qHTS assay for inhibitors of human arachidonate 12S-lipoxygenase (ALOX12): Round 2; details: purified 12hLO, xylenol orange hydroperoxide absorbance; activity change, negative = inhibition: at 108 µM (top of the series) unless noted
In short: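 Purified human 12hLO (150 nM final) in 25 mM Hepes, 0.01% Triton X-100, pH 7.0 was preincubated 15 min at room temperature with compound. Then 40 uM arachidonic acid was added, 30 min. Hydroperoxide was read by Fe-XO absorbance ratio 573/405 nm.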
% is scaled to controls: 0 for no effect and ±100 for the full control effect; potency is read from the fitted curve at half-maximal effect.

| Structure (SMILES) | activity change, negative = inhibition | Potency |
| --- | --- | --- |
| N#Cc1cc(-c2ccccc2)cn(Cc2c(Cl)cccc2Cl)c1=O | inactive: 23.1% | – |
| COC(=O)c1cc2c(c3c4cc(OC)ccc4n(S(=O)(=O)c4ccc(C)cc4)c13)C(=O)N(Cc1ccccc1)C2 | inactive: -9.61% | – |
| NC(=O)CC(NC(=O)Cc1cccc2ccccc12)c1ccc(NC2CCC2)c([N+](=O)[O-])c1 (stereo not given) | – | inconclusive: 44.7 µM [inhibitor, partial curve, poor fit] |
| CCOc1ccc(/C(O)=C2/C(=O)C(=O)N(c3ncccn3)C2c2ccc(C)cc2)cc1 (stereo not given) | – | inconclusive: 50.1 µM [inhibitor, partial curve, poor fit] |
| CC(=O)Nc1ccc(-c2ccnc3c2CC(C)(C(=O)NCc2ccc(F)c(F)c2)O3)cc1 (stereo not given) | – | inconclusive: 4.47 µM [inhibitor, full curve, poor fit] |
| CC1(C)Oc2ccc3ccc(=O)oc3c2/C(=C/Nc2ccccn2)C1=O | – | inconclusive: 35.5 µM [inhibitor, partial curve, poor fit] |
| O=C(N/N=C/c1cc(Cl)ccc1O)c1ccccc1Br | inactive: -28.3% | – |
| CCCCCn1c(NCc2ccccc2OC)nc2ccccc21 | inactive: 5.64% | – |
| Cn1cnnc1CC1CCN(S(=O)(=O)c2ccc(F)cc2)CC1 | inactive: 32% | – |
| CC[C@@H](C(=O)[C@@H](C)[C@@H](O)[C@H](C)CCc1ccc(C)c(O)c1C(=O)O)[C@H]1O[C@](CC)([C@H]2CC[C@](O)(CC)[C@H](C)O2)C[C@@H]1C | inactive: -7.51% | – |
| COc1cccc(C=NNC(=S)NN=Cc2cccc(OC)c2OC)c1OC | – | inconclusive: 50.1 µM [inhibitor, partial curve, poor fit] |
| CCCn1c(SC2C(=O)CC(C)(C)CC2=O)nc2c1c(=O)n(C)c(=O)n2C | – | inconclusive: 12.6 µM [inhibitor, full curve] |
| COc1ccc(C(=O)NCC2Cc3cccc(-c4cncnc4)c3O2)c(OC)c1OC (stereo not given) | – | inconclusive: 126 µM [inhibitor, single point] |
| CC(C)(C)NC(=O)C(c1ccncc1)n1c(=O)c(-c2ccco2)nc2ccccc21 (stereo not given) | inactive: -2.92% | – |
| C[C@@H]1CN([C@@H](C)CO)C(=O)c2cc(-c3cccnc3)cnc2O[C@H]1CN(C)C(=O)c1cccc(F)c1 | – | inconclusive: 89.1 µM [inhibitor, single point] |
| CCOC1=C2CN(S(=O)(=O)c3ccc(C)cc3)C(c3ccc(C)cc3)CC2N(S(=O)(=O)c2ccc(C)cc2)C(c2ccccc2)C1 (stereo not given) | inactive: 8.15% | – |
| COc1ccc(CC(N)c2csc(NC(=O)c3cc(C(C)(C)C)oc3C)n2)cc1 (stereo not given) | – | inconclusive: 44.7 µM [inhibitor, partial curve, poor fit] |
| CSc1cccc(NC(=O)CN(c2ccc(C)cc2C)S(C)(=O)=O)c1 | inactive: 32.7% | – |
| CC(=O)N1CCN(C(=S)c2ccc(-c3ccc(Cl)cc3)o2)CC1 | – | inconclusive: 15.8 µM [inhibitor, partial curve, poor fit] |
| CCOc1cccc(C2C(C#N)=C(N)Oc3cc(C)[nH]c(=O)c32)c1OCC (stereo not given) | inactive: -4.93% | – |
| COCCn1c(SCc2c(Cl)cccc2Cl)nnc1-c1cccc(C)c1 | – | inconclusive: 50.1 µM [inhibitor, partial curve, poor fit] |
| N[C@@]1(C(=O)O)CO[C@H]2[C@H](C(=O)O)[C@H]21 | – | inconclusive: 8.91 µM [inhibitor, partial curve, poor fit] |

| Structure (SMILES) | activity change, negative = inhibition | Potency |
| --- | --- | --- |
| Cc1occc1-c1nnc(SCC(=O)NCc2ccco2)n1CC(C)C | – | inconclusive: 100 µM [inhibitor, single point] |
| CC1(C)Cc2c(c(N3CCOCC3)nc3sc4c(=O)[nH]cnc4c23)CS1 | – | inconclusive: 35.5 µM [inhibitor, partial curve, poor fit] |
| O=C(Nc1ccccc1)N1CCN(C(=O)c2nsc3ccccc23)CC1 | – | inconclusive: 126 µM [inhibitor, partial curve, poor fit] |
| CN(C)CCCNC(=O)CCCNc1nc(Cl)nc2nc[nH]c12 | – | inconclusive: 126 µM [inhibitor, single point] |
| Cc1ccc(C2NC(=S)N3C(c4ccc(C)cc4)NC(=S)N23)cc1 (stereo not given) | – | inconclusive: 50.1 µM [inhibitor, partial curve, poor fit] |
| COC(=O)c1c(C)sc2c1OC(N)=C(C#N)C21C(=O)N(Cc2ccc(F)cc2)c2ccccc21 (stereo not given) | inactive: 5.74% | – |
| CCc1ccc(CN(C)C(=O)c2cc(COc3cncc(Cl)c3)on2)cc1 | – | inconclusive: 50.1 µM [inhibitor, partial curve, poor fit] |
| COC(=O)c1ccccc1NC(=O)CCCCCn1nnc2ccccc2c1=O | – | inconclusive: 50.1 µM [inhibitor, single point] |
| Cc1c(Cl)cccc1NC(=O)c1nc2ccccc2nc1N1CCCCC1 | inactive: 14% | – |
| Cc1nn(CCc2nc(-c3ccccc3)cs2)c2[nH]c(=O)cc(C(F)(F)F)c12 | – | active: 7.08 µM |
| COC(=O)c1ccc2nc(-c3ccc(F)cc3)c(Cc3ccc(OC)cc3C)n2c1 | inactive: -30% | – |
| O=C(c1ccc2c(c1)OCO2)N1CCc2nc(C3CC3)nc(-c3ccc(Cl)cc3)c2CC1 | – | inconclusive: 28.2 µM [inhibitor, full curve] |
| CN1C(=O)C2C(c3ccc(N(C)C)cc3)NN(Cc3ccccc3)C2C1=O (stereo not given) | inactive: -16.9% | – |
| CCOc1ccc(S(=O)(=O)NCC(c2ccc3c(c2)OCO3)N2CCN(C)CC2)cc1 (stereo not given) | – | inconclusive: 63.1 µM [inhibitor, partial curve, poor fit] |
| Cc1cccc(NC(=O)c2cccc(C(=O)Nc3cccc(C)n3)c2)n1 | – | inconclusive: 31.6 µM [inhibitor, partial curve, poor fit] |
| COc1ccc(-n2nc3c(N4CCC(C(=O)NCCc5ccco5)CC4)nnc(C)c3c2C)cc1 | inactive: -25.6% | – |
| O=C(CSc1n[nH]c(-c2cccnc2)n1)OC1CCCCC1 | – | inconclusive: 12.6 µM [inhibitor, full curve, poor fit] |
| Fc1ccccc1NC(=S)NCCC(c1ccccc1)c1ccccc1 | – | inconclusive: 35.5 µM [inhibitor, partial curve, poor fit] |
| Oc1csc(Cc2nc(-c3ccc(-c4ccccc4)cc3)cs2)n1 | – | inconclusive: 50.1 µM [inhibitor, partial curve, poor fit] |
| Cc1nnc(SCc2nnc(-c3ccc(F)cc3)o2)n1-c1ccccc1 | – | inconclusive: 1.78 µM [inhibitor, partial curve, poor fit] |
| Oc1ccc(/C=N/NC(=S)Nc2cccnc2)cc1O | – | inconclusive: 50.1 µM [inhibitor, partial curve, poor fit] |
| C#CCN(CC)CC(=O)NCc1cccs1 | inactive: -12.4% | – |

| Structure (SMILES) | activity change, negative = inhibition | Potency |
| --- | --- | --- |
| O=C(/C=C/c1ccc(O)cc1)c1ccsc1 | – | inconclusive: 100 µM [inhibitor, single point] |
| COc1ccc(CCN(C)C(=O)c2oc3ccccc3c2C)cc1OC | – | inconclusive: 3.98 µM [inhibitor, full curve, poor fit] |
| C=CCNc1nc(-c2cccs2)c(CC(=O)O)s1 | – | inconclusive: 50.1 µM [inhibitor, single point] |
| CCOC(=O)CNC(=O)CN1CCCN(S(=O)(=O)c2ccc(Br)s2)CC1 | – | inconclusive: 50.1 µM [inhibitor, partial curve, poor fit] |
| COc1cccc(-c2cc(-c3cccc(OC)c3)[nH]n2)c1 | – | inconclusive: 112 µM [inhibitor, single point] |
| CCN(CCCNC(=O)c1nn(-c2ccc(C)cc2)c(=O)c2c1c1ccccc1n2C)c1ccccc1 | – | inconclusive: 126 µM [inhibitor, partial curve, poor fit] |
| Cc1cc(C)c(N=C2C(=O)Nc3ccccc32)c(C)c1 | inactive: 4.28% | – |
| CCOc1ccc(CN(C)Cc2cc(=O)oc3c(C)c(C)ccc23)cc1OC | inactive: -1.39% | – |
| COc1ccc(C(=O)NC(C(=O)N2CCCC2)C2CCN(C(=O)c3ccc(Cl)cc3)CC2)cc1 (stereo not given) | inactive: 0.952% | – |
| CCc1nc2c(cnn2-c2ccc(C)cc2)c(=O)n1-c1ccc(OC)c(Cl)c1 | – | inconclusive: 35.5 µM [inhibitor, partial curve, poor fit] |
| Fc1ccccc1-c1nnc(SCc2ccccc2)n1C1CC1 | – | inconclusive: 141 µM [inhibitor, partial curve, poor fit] |
| c1ccc(Nc2ncnc3ccc(-c4cccnc4)cc23)cc1 | inactive: -28.9% | – |
| O=C(O)CCC(NC(=O)c1ccccc1)C(=O)O (stereo not given) | – | inconclusive: 44.7 µM [inhibitor, partial curve, poor fit] |
| Cc1ccc(/C=N/Nc2ccc3ccccc3n2)s1 | – | inconclusive: 44.7 µM [inhibitor, partial curve, poor fit] |
| O=C(c1ccc(NS(=O)(=O)c2cccc3cccnc23)cc1)N1CCOCC1 | – | inconclusive: 31.6 µM [inhibitor, partial curve, poor fit] |
| CCOC(=O)C(=Cc1ccc(OCc2ccc([N+](=O)[O-])cc2)c(OC)c1)C(=O)OCC | inactive: 167% | – |
| O=C(Nc1cc2c3c(c1)CC(=O)N3CCC2)c1ccc(Br)o1 | – | inconclusive: 35.5 µM [inhibitor, partial curve, poor fit] |
| O=CC(=O)c1ccccc1 | inactive: -5% | – |
| COc1ccccc1N(C(=O)CN1C(=O)c2ccccc2S1(=O)=O)C(C(=O)NCC1CCCO1)c1ccc(F)cc1 (stereo not given) | – | inconclusive: 56.2 µM [inhibitor, partial curve, poor fit] |
| Fc1ccc(-n2cc(CNCCc3ccncc3)c(-c3ccccc3Cl)n2)cc1 | inactive: -3.73% | – |
| CC(C)/C(=N/Nc1ccccc1[N+](=O)[O-])c1ccccc1 | – | inconclusive: 100 µM [inhibitor, partial curve, poor fit] |

2 compounds drawn at random from those above, as already listed:

| Structure (SMILES) | activity change, negative = inhibition | Potency |
| --- | --- | --- |
| CCOC(=O)C(=Cc1ccc(OCc2ccc([N+](=O)[O-])cc2)c(OC)c1)C(=O)OCC | inactive: 167% | – |
| COc1ccc(CCN(C)C(=O)c2oc3ccccc3c2C)cc1OC | – | inconclusive: 3.98 µM [inhibitor, full curve, poor fit] |
